# Whole data set: some 33,000 sequences, median “E-score (-0.5 to 0.5)” near -8e-05, cut for the highest 2% near 0.23. The list shows a part of the results.
# Target: T1, Nrg2 (UniProt P38082)
# T1 sequence: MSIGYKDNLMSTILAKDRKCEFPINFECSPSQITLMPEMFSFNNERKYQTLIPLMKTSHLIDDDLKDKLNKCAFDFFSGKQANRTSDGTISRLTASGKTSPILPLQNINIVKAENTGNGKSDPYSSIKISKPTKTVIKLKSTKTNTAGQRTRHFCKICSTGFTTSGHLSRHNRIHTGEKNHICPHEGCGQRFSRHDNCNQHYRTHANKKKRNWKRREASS
# Assay: PBM E-score (8-mer binding enrichment) (E-score (-0.5 to 0.5)); higher = stronger / more preferred TF binding
# Conditions: protein concentration: 100 nM; construct: GST-full length
# How it was run: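 Detection of bound protein used fluorescent anti-GST, with scans normalised by masliner. The proteins were GST-tagged yeast transcription factors applied at about 100-200 nM to universal all-10-mer Agilent arrays made double-stranded by primer extension. Each ungapped eight-base word, pooled with its reverse complement, was scored with an E-score from the Universal PBM Analysis Suite.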
row,Sequence,PBM E-score
1,CACCCGCG,0.169
2,CGGGCAGC,0.0778
3,GCCGCGGA,-0.00587
4,CTAGTCAG,-0.0488
5,GAGACTAA,-0.027
6,CCTAAGGA,0.118
7,AGGCGACT,-0.228
8,CCCTATGC,0.102
9,ACTTCGGA,0.14
10,AGAAAGCG,0.0347
11,CGTAATCA,0.198
12,AGTGTCTA,-0.0413
13,CCGCCCCA,0.0998
14,ACTCCCCA,-0.0321
15,GTGGCAAC,-0.0138
16,ATGGGTAA,0.0324
17,CTTACTCC,-0.0492
18,CAACACCG,-0.0448
19,CTATAGTC,-0.141
20,AACCGTAT,-0.248
21,ATTCCTCG,0.0752
22,AAGAGTAA,0.0215
23,ACTTACAA,0.0529
24,CAAACGGC,-0.0212
25,CCGGCATC,-0.191

row,Sequence,PBM E-score
1,AAGCTGAC,-0.148
2,CCTGTGAC,-0.0251
3,ATTGAAGG,-0.178
4,AGCGTAGC,-0.0469
5,GAGATTGC,-0.125
6,GCAGAGTA,0.00217
7,CTCCGCCC,-0.103
8,CCTTCGTC,-0.143
9,AATAGCGG,-0.132
10,GAGTATTA,0.00698
11,GAGCCCGA,-0.0829
12,ACCGCAGT,0.00709
13,ACCGACCC,0.00933
14,AACCACTG,0.0489
15,AAAAGGAC,0.0484
16,CCGAACCA,-0.00203
17,TCGGAGCA,-0.226
18,AAATGCCG,0.071
19,AATGATTC,0.122
20,CCCTCTAC,-0.156
21,ACCTGAGA,0.0535
22,AGCCCGCA,-0.0126
23,AACCTTGG,-0.00283
24,CGCATTAA,0.0849
25,CCTCCTGC,-0.165

row,Sequence,PBM E-score
1,CAACCCAG,-0.111
2,CTGGACAA,0.00924
3,CGACAAAA,0.227
4,ACCACCGA,0.0535
5,GGTTCAGA,0.0397
6,GGTTTTGA,0.148
7,TCTGCCCA,-0.137
8,AGTGCGAT,0.0799
9,TCAATAAA,-0.0825
10,CCGATACC,0.075
11,TCCAGAGA,-0.144
12,CTTTTGGA,-0.0553
13,AGAGGACC,-0.116
14,CCCTCACA,-0.0171
15,ACCATCTC,0.0848
16,ATTCAGGA,0.117
17,ATAGAGGC,-0.245
18,CCATATGA,0.0683
19,GCATGGTA,-0.0382
20,AAAGAACT,0.0858
21,AGTATCGC,0.133
22,CTTCACGA,-0.206
23,GTATCGAA,0.123
24,CTTTTCGA,0.138
25,CGAACAAA,0.279

row,Sequence,PBM E-score
1,TATTCGCA,0.187
2,CCCACCGC,0.0113
3,CAGCGAAG,-0.189
4,GACCTCAA,0.00066
5,ATCTCCTG,0.0324
6,GCGGCGCC,0.176
7,GCTCGAAA,0.168
8,GCACGCCA,-0.156
9,ATTGTTCG,0.189
10,CAACCGAG,0.0557
11,TCTCTAAA,-0.134
12,TGGACACA,-0.108
13,GCAGGGTA,0.164
14,ATGAGGTG,0.0401
15,AATCCCTG,0.278
16,ACTACACT,-0.147
17,ACGATAAC,0.0465
18,ATCGCTCG,0.0845
19,ACTGGAAC,0.0198
20,TTTATAAA,0.245
21,AAGCCAGT,-0.169
22,AGTCGATG,0.00397
23,AAGACGAG,-0.17
24,ACTCGCGG,-0.0227
25,AGGGAGGC,-0.295

# Single values from the list:
# Entry of AGGGAGGC under PBM E-score: -0.295
# Entry of TATTCGCA under PBM E-score: 0.187
# Entry of GACCTCAA under PBM E-score: 0.00066
# Entry of ATGAGGTG under PBM E-score: 0.0401
# Entry of TGGACACA under PBM E-score: -0.108
# Entry of GCTCGAAA under PBM E-score: 0.168

# (continued)

row,Sequence,PBM E-score
1,ATGTCACG,-0.0777
2,CGATGATC,-0.0749
3,GAGGCAAA,0.115
4,GACGGTGC,-0.139
5,AGCGTTGA,0.0457
6,GTGGCCAC,0.156
7,ACTGCATC,0.146
8,CGGTTAAA,0.0194
9,GAGGTTGA,-0.166
10,CCTAGCGA,-0.113
11,ATTATAAA,0.0896
12,AATTTGAC,0.127
13,GACTCAGA,-0.129
14,AAGCCCCG,-0.0541
15,TACCGAGA,-0.00359
16,CAGACCAC,0.0231
17,TTGAGCAA,-0.111
18,GAGTACGC,-0.12
19,GCAGAGAC,-0.235
20,CTGGGTAC,0.0272
21,AGTGGAAC,0.038
22,ACGGTAGG,-0.145
23,AGGTCACT,-0.192
24,AGCGAACC,0.0466
25,TAAACCTA,0.0795

row,Sequence,PBM E-score
1,TCCGTAGA,-0.0598
2,CAGGCTTA,-0.0796
3,ATTCGCTA,-0.0606
4,AATCATCC,0.0455
5,AAACCGTA,-0.0876
6,CATACGGC,0.0689
7,GATATAGA,0.0519
8,AGGGCGCC,0.139
9,CTCATCAA,-0.0118
10,ATGATCTA,0.236
11,CGATAGCA,-0.161
12,CGACCCCA,0.13
13,CTCAACCA,-0.00996
14,ACGGTTGG,-0.2
15,CACGCACC,-0.208
16,ACTAGGCT,0.0116
17,ACCAGTAC,-0.0262
18,CCTTCTAG,-0.215
19,CTGTCTGC,-0.206
20,AGGCTAGA,-0.299
21,AGCTAGGG,0.00862
22,ACTCTCGA,0.0367
23,CAGCCCAC,-0.14
24,GCGGGGCC,0.0355
25,ACCCTATG,0.127

row,Sequence,PBM E-score
1,CGTATTAA,-0.0064
2,ACAGTCCG,-0.172
3,ACTATCGC,0.0333
4,TATAAAGA,-0.044
5,CCCGGCCC,-0.251
6,ACTAAGTC,-0.0797
7,GCCAATAA,0.137
8,AAAGCTGT,0.117
9,CTTCTTAC,-0.116
10,AATGAACG,0.0572
11,AATACGAG,0.132
12,AACCATCC,-0.0832
13,AACCTACC,-0.0709
14,AACAAAAT,0.153
15,CAGGCTCC,-0.143
16,AGGAGGAC,-0.274
17,CCGCTCTA,-0.0252
18,CAATGGGG,-0.128
19,CTGGGGGA,-0.419
20,CGAACACC,-0.0608
21,CATAGTTC,0.045
22,GCCTTCCC,-0.352

# Reference: the supplement of paper PMC3334620
